4 sequences from paper PMC6593515 can be followed below.

Data set [1] relates to GST-ONAC066. As to the kind of experiment: competition with a labelled probe. The settings on record: 200x unlabeled vs biotin-wJBSL (EMSA); LightShift Chemiluminescent EMSA Kit, 20 uL with 5x EMSA buffer, 2 ug protein, 1 uL biotin probe; competitor 200x, 20 min preincubation; 6% PAGE; recombinant protein; protein details: GST (N-terminal, pGEX-6p-1). In general terms: A gel shift assay detects complexes by their altered migration in electrophoresis.

The test system of data set [2] is GST-ONAC066. As to the kind of experiment: EMSA. The note with it: LightShift Chemiluminescent EMSA Kit, 20 uL with 5x EMSA buffer, 2 ug protein, 1 uL biotin probe; competitor 200x, 20 min preincubation; 6% PAGE; recombinant protein; protein details: GST (N-terminal, pGEX-6p-1).

For at least one entry, the source does not settle the construct or the ends of the probe. A negative result means that nothing was seen under these conditions.

As to “GGGAGAAAAAAAGACAGGAAAAAGTTG (double strand) [mJBSL unlabeled competitor]”, in the data set with GST-ONAC066 [1], the binding result is given as “no binding”.

On to “GGGAGAAAAAAAGACAGGAAAAAGTTG (double strand) [mJBSL]”, for which, in the data set on GST-ONAC066 [2], the binding result is recorded as “no binding”. Turning to “GGGAGATGCCGTGACAGGACGCGGTTG (double strand) [wJBSL unlabeled competitor]”, the binding result in the data set on GST-ONAC066 [1] is given as “binds”.

For the sequence “GGGAGATGCCGTGACAGGACGCGGTTG (double strand) [wJBSL]”, the binding result with GST-ONAC066 [2] was “binds”.
